Article PMC4459967

Protein sequences, listed by entry. Tags and fused reporters are not part of them. Lines headed by an entry give the natural chain unless they say otherwise; changes in a name come on top.
UniProt Q9FHA3: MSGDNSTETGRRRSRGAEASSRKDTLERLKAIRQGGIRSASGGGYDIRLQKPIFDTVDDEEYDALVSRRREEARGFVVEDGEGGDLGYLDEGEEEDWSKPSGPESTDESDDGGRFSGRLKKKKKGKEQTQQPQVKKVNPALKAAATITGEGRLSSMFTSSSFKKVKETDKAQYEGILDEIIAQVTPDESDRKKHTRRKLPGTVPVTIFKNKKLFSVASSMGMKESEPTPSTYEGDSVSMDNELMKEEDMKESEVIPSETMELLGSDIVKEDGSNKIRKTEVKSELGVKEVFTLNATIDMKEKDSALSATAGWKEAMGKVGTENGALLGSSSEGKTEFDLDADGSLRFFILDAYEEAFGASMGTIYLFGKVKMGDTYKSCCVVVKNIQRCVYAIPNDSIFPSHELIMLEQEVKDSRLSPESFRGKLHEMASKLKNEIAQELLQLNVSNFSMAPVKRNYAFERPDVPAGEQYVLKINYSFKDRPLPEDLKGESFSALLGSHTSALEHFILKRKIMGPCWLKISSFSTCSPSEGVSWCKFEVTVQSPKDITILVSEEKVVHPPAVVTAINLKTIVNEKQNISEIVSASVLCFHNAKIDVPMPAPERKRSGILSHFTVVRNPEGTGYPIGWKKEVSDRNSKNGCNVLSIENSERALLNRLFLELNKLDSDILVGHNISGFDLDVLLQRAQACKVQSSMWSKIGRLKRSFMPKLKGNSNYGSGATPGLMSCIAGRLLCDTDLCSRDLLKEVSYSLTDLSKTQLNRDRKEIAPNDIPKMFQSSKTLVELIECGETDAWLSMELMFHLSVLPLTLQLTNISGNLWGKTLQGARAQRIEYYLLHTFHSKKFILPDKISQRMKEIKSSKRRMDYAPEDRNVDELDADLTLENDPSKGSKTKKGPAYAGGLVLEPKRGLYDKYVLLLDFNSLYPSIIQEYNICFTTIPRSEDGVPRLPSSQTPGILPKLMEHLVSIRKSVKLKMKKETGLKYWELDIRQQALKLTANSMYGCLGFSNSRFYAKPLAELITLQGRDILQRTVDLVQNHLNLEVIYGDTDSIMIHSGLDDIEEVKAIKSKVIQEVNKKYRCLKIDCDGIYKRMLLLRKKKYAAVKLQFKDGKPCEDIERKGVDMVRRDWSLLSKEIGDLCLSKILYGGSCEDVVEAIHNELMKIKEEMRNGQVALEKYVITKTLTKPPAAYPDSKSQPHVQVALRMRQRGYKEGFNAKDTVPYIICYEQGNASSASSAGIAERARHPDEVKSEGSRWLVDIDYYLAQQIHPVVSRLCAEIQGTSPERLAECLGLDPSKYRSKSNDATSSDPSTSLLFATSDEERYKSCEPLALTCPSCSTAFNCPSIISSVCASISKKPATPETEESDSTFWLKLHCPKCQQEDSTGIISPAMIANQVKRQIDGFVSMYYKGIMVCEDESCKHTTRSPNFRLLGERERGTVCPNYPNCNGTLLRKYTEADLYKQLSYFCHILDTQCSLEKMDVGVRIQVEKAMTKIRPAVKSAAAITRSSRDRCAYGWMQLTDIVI

Biological target: T1, MMS19-Flag (Arabidopsis thaliana) (UniProt Q0WVF8)
T1 sequence: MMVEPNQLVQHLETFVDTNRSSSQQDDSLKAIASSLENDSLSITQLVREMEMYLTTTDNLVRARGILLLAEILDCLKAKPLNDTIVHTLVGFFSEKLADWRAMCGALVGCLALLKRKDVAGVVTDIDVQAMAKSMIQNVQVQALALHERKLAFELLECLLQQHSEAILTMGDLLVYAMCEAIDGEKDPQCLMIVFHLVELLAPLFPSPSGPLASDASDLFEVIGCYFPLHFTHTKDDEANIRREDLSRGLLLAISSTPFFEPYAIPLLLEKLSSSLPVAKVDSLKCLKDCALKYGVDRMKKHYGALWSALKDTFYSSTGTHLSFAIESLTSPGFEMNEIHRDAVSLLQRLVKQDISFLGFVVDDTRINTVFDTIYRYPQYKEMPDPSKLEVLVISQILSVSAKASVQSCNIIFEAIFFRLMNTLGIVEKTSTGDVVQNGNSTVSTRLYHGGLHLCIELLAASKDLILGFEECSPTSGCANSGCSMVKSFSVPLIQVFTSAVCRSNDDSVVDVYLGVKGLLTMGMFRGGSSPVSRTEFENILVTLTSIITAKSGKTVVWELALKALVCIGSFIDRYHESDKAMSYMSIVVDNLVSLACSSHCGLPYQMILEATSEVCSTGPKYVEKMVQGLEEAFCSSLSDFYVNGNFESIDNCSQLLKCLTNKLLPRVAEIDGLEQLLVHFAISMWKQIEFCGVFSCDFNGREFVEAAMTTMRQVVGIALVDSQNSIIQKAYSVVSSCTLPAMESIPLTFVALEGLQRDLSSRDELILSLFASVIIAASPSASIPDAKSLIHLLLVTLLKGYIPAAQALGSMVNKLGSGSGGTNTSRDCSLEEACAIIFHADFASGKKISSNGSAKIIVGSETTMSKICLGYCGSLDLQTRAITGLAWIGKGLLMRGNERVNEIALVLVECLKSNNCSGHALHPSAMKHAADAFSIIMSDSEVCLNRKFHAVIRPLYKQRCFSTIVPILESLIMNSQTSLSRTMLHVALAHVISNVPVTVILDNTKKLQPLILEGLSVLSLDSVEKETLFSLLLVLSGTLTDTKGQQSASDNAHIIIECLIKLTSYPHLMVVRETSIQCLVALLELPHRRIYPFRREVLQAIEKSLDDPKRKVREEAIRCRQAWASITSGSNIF
Assay: co-IP; total protein extracts of T2 transgenic plants carrying two tagged transgenes, antibody-conjugated beads, washed 5 or 6 times with lysis buffer, Western blotting

binding: binds
Substance: ICU2-Myc (from UniProt Q9FHA3)

No constants are given. Whether binding was seen depends on the method and setting. In cells and extracts the contact can be indirect. A result given as binding can be weak or reduced; the word gives no strength. Tags and fused reporters may be left off the sequences shown.
